Experimental data published in paper PMC11274071.
Results are given in words; binding and its absence hold for the method and conditions named. In cells and extracts the contact can be indirect. Some results given as binding are weak or reduced against the parent protein; the word gives no strength.

Amino acid sequences for entries named in this document (tags omitted). Residues count along the entry.
UniProt P25445, residues 26-335: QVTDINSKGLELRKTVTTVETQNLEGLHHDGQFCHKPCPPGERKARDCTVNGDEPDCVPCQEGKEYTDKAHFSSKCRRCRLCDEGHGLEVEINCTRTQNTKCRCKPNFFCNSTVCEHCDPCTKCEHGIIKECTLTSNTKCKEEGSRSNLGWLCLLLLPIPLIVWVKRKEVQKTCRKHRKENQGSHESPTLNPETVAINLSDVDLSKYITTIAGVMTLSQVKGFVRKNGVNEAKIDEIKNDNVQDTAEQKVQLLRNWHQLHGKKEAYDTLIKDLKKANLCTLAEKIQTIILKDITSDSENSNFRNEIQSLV
UniProt P31749: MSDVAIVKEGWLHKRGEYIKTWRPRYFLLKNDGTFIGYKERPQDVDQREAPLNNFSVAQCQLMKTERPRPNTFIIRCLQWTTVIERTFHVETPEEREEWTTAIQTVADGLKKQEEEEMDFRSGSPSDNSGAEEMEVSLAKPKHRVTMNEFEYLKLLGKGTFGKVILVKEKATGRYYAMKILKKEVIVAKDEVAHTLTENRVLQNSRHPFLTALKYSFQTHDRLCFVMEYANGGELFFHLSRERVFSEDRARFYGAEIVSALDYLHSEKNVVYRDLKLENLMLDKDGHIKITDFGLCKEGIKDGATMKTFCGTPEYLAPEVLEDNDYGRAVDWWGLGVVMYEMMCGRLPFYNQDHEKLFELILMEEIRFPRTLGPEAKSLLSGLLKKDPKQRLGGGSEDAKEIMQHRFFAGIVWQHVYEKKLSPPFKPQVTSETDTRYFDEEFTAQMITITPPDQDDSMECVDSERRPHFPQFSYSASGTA
UniProt P04233: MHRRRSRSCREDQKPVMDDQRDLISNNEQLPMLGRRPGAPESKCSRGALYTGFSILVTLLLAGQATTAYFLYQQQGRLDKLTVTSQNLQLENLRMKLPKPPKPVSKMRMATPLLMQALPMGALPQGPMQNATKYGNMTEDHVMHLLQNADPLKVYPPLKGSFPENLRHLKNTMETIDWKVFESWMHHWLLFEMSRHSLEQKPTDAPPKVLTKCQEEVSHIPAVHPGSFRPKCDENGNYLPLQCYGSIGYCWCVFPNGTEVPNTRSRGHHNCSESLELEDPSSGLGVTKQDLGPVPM

Experiments:
[1] = target: FAS (human (endogenous in MDA-MB-231)) (UniProt P25445); assay: co-IP; MDA-MB-231 cells, IP/IB with anti-CD74 (LN-2) and anti-FAS (B-10) antibodies; E1A lysis buffer (250 mM NaCl, 50 mM HEPES pH 7.5, 0.1% NP-40, 5 mM EDTA); cells pre-treated with peptides for 24 h
[2] = target: AKT phosphorylated at S473 (human (endogenous in HEK-293)) (UniProt P31749); assay: co-IP; HEK-293 lysates precipitated with anti-phospho-AKT1 (Ser473) antibody, blotted with the IN1 antibody against the cytosolic domain of CD74

binding [1]: binds
binding [2]: binds
Substance: CD74 (from UniProt P04233 1-296)
